Results published in patent US10952958B2, “Donezil pamoate, method of preparation and use thereof” (priority 2011, dated 2021).
Structures can show the parent of a compound that is named as a salt. Where two headings read alike, the source gives them in different places.

Columns and labels:
[1] = for stability of the salt form: physicochemical characterization studies, comparison among donepezil pamoate salt forms
[2] = female rats, single intramuscular injection, 13.5 mg/kg (in donepezil), n=5, FIG. 11

Row | SMILES | solid form conversion (XRPD pattern) ([1]; following reformation of a slurry in water) | stability of the salt form [1] | donepezil plasma concentration profile (in vivo absorption) [2] | stability of the salt form ([1]; listed as donepezil pamoate salt (hydrated, 2:1 ratio))
1 | COc1cc2c(cc1OC)C(=O)C(CC1CCN(Cc3ccccc3)CC1)C2.O=C(O)c1cc2ccccc2c(Cc2c(O)c(C(=O)O)cc3ccccc23)c1O [Example 5, donepezil pamoate] | converted to solids with the same XRPD pattern in FIG. 3 | – | – | –
2 | COc1cc2c(cc1OC)C(=O)C(CC1CCN(Cc3ccccc3)CC1)C2.O=C(O)c1cc2ccccc2c(Cc2c(O)c(C(=O)O)cc3ccccc23)c1O [anhydrous form, donepezil pamoate] | – | not stable | – | –
3 | COc1cc2c(cc1OC)C(=O)C(CC1CCN(Cc3ccccc3)CC1)C2 (stereo not drawn) [donepezil hydrochloride, reference compound] | – | – | rapidly absorbed and then eliminated | –
4 | COc1cc2c(cc1OC)C(=O)C(CC1CCN(Cc3ccccc3)CC1)C2.O=C(O)c1cc2ccccc2c(Cc2c(O)c(C(=O)O)cc3ccccc23)c1O [donepezil pamoate (2:1), donepezil pamoate] | – | most stable form | sustained level of donepezil plasma concentrations was maintained | most stable salt
